Results reported in PubChem BioAssay AID493014 (National Center for Advancing Translational Sciences (NCATS), 2011).
This is one part of the list. Further columns of the screen follow, without active or inactive calls. Most of these compounds were active or inconclusive in the main read-out, so they are no random draw. The note in brackets gives the kind of curve behind each potency; many fits are weak.

Assay: qHTS Assay to Find Inhibitors of Chronic Active B-Cell Receptor Signaling
Conditions: ABC-DLBCL IkBa-CBG/CBR reporter, luminescence ratio (green luciferase fused to IkBa over red control in TMD8 lymphoma cells), 4 h
Summary of the method: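 Doxycycline induced both beetle luciferases in TMD8 lymphoma cells; IKK-driven degradation limits the IkappaBalpha-fused green signal, while red luminescence normalises for cell number and nonspecific effects. Compounds tested up to 46 uM, 4 hrs.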

[1] = measured here: CBR red luminescence, cell number

Row | Structure (SMILES) | AC50 [1] | AC50 (measured here: IkBa-CBG green luminescence)
1 | C/C(N)=C(/C#N)C(=O)CSc1nc2cc(Cl)ccc2c(=O)n1Cc1ccco1 | 8.91 µM [falling, partial curve] | 
2 | COc1cc(/C=C/C(=O)OCC(=O)NC(=O)NC(C)(C)C)ccc1OCC#N | 2.06 µM [falling, partial curve, poor fit] | 
3 | COc1ccc2c(c1)sc1nc(-c3ccccc3)cn12 | 12.6 µM [falling, partial curve] | 10 µM [falling, partial curve]
4 | c1cncc(-c2nc(NCc3ccc4c(c3)OCO4)c3ccccc3n2)c1 | 14.1 µM [falling, partial curve] | 
5 | O=C(Nc1ccccc1)c1ccc(Nc2c([N+](=O)[O-])cc([N+](=O)[O-])c3ccccc23)cc1 | 6.51 µM [rising, partial curve, poor fit] | 
6 | C=CCN(CC=C)C(=O)COC(=O)c1n[nH]c2ccccc12 | 11.2 µM [falling, partial curve] | 
7 | CN1C(=O)C(O)(CC(=O)/C=C/c2ccco2)c2ccccc21 (stereo not drawn) | 35.5 µM [falling, partial curve, poor fit] | 
8 | CCOC(=O)c1c(-c2ccc(C)s2)csc1NC(=O)c1cccs1 | 14.6 µM [rising, single point] | 
9 | O=C(NCCOc1ccccc1Cl)c1cc(F)c(F)cc1Cl | 3.16 µM [rising, full curve] | 
10 | CSc1ccccc1NC(=O)CN(C)C(C)C(=O)NC(=O)NC1CCCCC1 (stereo not drawn) | 29.1 µM [falling, single point] | 
11 | CN(C)c1ccc(/C=N/N=C2/NC(=O)/C(=C/c3ccc([N+](=O)[O-])cc3)S2)cc1 | 0.0891 µM [falling, full curve, poor fit] | 
12 | Cc1cc(C)cc(NC(=O)CCn2c(=O)c3cccn3c3ccccc32)c1 | 22.4 µM [falling, single point] | 
13 | COC(=O)[C@]1(Cc2ccccc2)N[C@H](c2ccc(-c3ccccc3)cc2)[C@@H]2C(=O)N(C)C(=O)[C@@H]21 | 20.6 µM [falling, single point] | 
14 | COc1ccccc1CNc1nc2nc(C)c(Cl)c(=O)n2[nH]1 | 5.8 µM [falling, partial curve] | 
15 | CCOC(=O)c1cccc(NC(=O)CCn2nnc3ccccc32)c1 | 6.51 µM [rising, partial curve, poor fit] | 
16 | Cc1nc(SCC(=O)Nc2nc3ccccc3s2)c(C#N)c(C)c1C | 0.651 µM [falling, full curve, poor fit] | 
17 | COc1cccc(CC(Cc2nc3ccccc3[nH]2)c2nc3ccccc3[nH]2)c1 (stereo not drawn) | 35.5 µM [falling, single point] | 

Quoted at random: two records from the list
Row | Structure (SMILES) | AC50 [1] | AC50 (measured here: IkBa-CBG green luminescence)
1 | C/C(N)=C(/C#N)C(=O)CSc1nc2cc(Cl)ccc2c(=O)n1Cc1ccco1 | 8.91 µM [falling, partial curve] | 
16 | Cc1nc(SCC(=O)Nc2nc3ccccc3s2)c(C#N)c(C)c1C | 0.651 µM [falling, full curve, poor fit] | 
